Results taken from publication PMC9101108, “Shifting CCR7 towards Its Monomeric Form Augments CCL19 Binding and Uptake” (Cells, 2022).
Results are given in words; binding and its absence hold for the method and conditions named. Binding seen in cells or lysates may run through a third protein. Some entries that bind do so weakly or less than the wild type. Blank lines part the entries; values can stand above or below the substance they belong to.

Protein sequences, listed by entry. Tags and fused reporters are not part of them. Lines headed by an entry give the natural chain unless they say otherwise; changes in a name come on top. Chains listed by the source or under a name are the forms on record and can include a tag or linker. Residues count along the entry.
human CCR7 wild-type fused to split-luciferase parts (hCCR7-nLuc161 and hCCR7-nLuc11) (P32248, residues 25-378): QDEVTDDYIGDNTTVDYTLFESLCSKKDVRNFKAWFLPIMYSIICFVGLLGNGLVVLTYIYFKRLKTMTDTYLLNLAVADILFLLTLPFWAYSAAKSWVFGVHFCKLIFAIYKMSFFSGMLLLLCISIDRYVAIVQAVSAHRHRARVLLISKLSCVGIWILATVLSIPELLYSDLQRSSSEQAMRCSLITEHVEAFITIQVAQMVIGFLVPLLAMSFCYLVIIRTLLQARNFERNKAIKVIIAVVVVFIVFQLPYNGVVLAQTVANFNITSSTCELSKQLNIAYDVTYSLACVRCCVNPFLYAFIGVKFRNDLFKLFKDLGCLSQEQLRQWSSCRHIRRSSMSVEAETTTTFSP
human CCR7 A315G fused to split-luciferase parts (P32248, form named): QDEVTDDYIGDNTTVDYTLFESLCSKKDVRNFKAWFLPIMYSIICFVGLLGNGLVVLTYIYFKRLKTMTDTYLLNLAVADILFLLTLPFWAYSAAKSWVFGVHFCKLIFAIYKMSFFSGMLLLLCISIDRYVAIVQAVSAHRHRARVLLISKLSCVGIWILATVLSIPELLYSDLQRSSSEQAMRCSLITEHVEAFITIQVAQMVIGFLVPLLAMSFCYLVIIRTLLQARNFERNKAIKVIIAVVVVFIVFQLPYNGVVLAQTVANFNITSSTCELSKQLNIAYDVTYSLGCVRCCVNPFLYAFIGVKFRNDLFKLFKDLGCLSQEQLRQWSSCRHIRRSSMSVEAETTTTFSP
human CCR7 L325S fused to split-luciferase parts (P32248, form named): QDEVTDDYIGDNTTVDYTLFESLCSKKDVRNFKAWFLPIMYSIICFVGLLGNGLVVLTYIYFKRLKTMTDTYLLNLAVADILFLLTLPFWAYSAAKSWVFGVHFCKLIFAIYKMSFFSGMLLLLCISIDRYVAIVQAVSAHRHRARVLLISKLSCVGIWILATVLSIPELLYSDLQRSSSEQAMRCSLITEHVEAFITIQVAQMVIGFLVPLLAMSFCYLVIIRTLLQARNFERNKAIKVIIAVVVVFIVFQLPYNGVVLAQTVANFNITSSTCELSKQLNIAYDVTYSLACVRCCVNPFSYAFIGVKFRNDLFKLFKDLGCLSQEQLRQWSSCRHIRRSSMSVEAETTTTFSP
human CCR7 SNP V317I fused to split-luciferase parts (P32248, form named): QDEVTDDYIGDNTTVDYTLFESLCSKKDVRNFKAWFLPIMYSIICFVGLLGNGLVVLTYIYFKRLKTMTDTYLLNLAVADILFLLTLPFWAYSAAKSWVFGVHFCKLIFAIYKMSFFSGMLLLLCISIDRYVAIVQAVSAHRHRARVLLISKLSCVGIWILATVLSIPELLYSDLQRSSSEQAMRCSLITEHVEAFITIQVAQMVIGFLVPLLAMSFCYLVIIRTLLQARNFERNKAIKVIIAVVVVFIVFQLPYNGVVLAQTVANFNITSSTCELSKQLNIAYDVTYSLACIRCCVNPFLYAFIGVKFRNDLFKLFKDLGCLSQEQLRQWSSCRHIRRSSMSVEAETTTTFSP

Columns and labels:
[1] = biological target: human CCR7 A315G fused to split-citrine fragments (human) (UniProt P32248); assay: split reporter; split-citrine BiFC; CCR7-C1 and CCR7-C2 co-transfected 1:1 in HeLa cells; complemented citrine fluorescence (523-548 nm) after 30 min at 37 °C, normalised to CCR7 WT
[2] = biological target: human CCR7 A315G fused to split-luciferase parts (human) (UniProt P32248); assay: split reporter; split-luciferase complementation; CCR7-nLuc161 and CCR7-nLuc11 co-transfected 1:1 in HeLa cells; 5 uM coelenterazine H, 37 °C, luminescence after 10 min
[3] = biological target: human CCR7 L325S fused to split-citrine fragments (human) (UniProt P32248); assay: split reporter; split-citrine BiFC; CCR7-C1 and CCR7-C2 co-transfected 1:1 in HeLa cells; complemented citrine fluorescence (523-548 nm) after 30 min at 37 °C, normalised to CCR7 WT
[4] = biological target: human CCR7 L325S fused to split-luciferase parts (human) (UniProt P32248); assay: split reporter; split-luciferase complementation; CCR7-nLuc161 and CCR7-nLuc11 co-transfected 1:1 in HeLa cells; 5 uM coelenterazine H, 37 °C, luminescence after 10 min
[5] = biological target: human CCR7 SNP V317I fused to split-citrine fragments (human) (UniProt P32248); assay: split reporter; split-citrine BiFC; CCR7-C1 and CCR7-C2 co-transfected 1:1 in HeLa cells; complemented citrine fluorescence (523-548 nm) after 30 min at 37 °C, normalised to CCR7 WT
[6] = biological target: human CCR7 SNP V317I fused to split-luciferase parts (human) (UniProt P32248); assay: split reporter; split-luciferase complementation; CCR7-nLuc161 and CCR7-nLuc11 co-transfected 1:1 in HeLa cells; 5 uM coelenterazine H, 37 °C, luminescence after 10 min
[7] = biological target: human CCR7 wild-type fused to split-citrine fragments (hCCR7-C1 and hCCR7-C2) (human) (UniProt P32248); assay: split reporter; split-citrine BiFC; CCR7-C1 and CCR7-C2 co-transfected 1:1 in HeLa cells; complemented citrine fluorescence (523-548 nm) after 30 min at 37 °C, normalised to CCR7 WT
[8] = biological target: human CCR7 wild-type fused to split-luciferase parts (hCCR7-nLuc161 and hCCR7-nLuc11) (human) (UniProt P32248); assay: split reporter; split-luciferase complementation; CCR7-nLuc161 and CCR7-nLuc11 co-transfected 1:1 in HeLa cells; 5 uM coelenterazine H, 37 °C, luminescence after 10 min

binding [1]: binds
Substance: human CCR7 A315G fused to split-citrine fragments (from UniProt P32248 25-378) (receptor)

binding [2]: binds
Substance: human CCR7 A315G fused to split-luciferase parts (from UniProt P32248 25-378) (receptor)

binding [3]: binds
Substance: human CCR7 L325S fused to split-citrine fragments (from UniProt P32248 25-378) (receptor)

binding [4]: binds
Substance: human CCR7 L325S fused to split-luciferase parts (from UniProt P32248 25-378) (receptor)

binding [5]: binds
Substance: human CCR7 SNP V317I fused to split-citrine fragments (from UniProt P32248 25-378) (receptor)

binding [6]: binds
Substance: human CCR7 SNP V317I fused to split-luciferase parts (from UniProt P32248 25-378) (receptor)

binding [7]: binds
Substance: human CCR7 wild-type fused to split-citrine fragments (hCCR7-C1 and hCCR7-C2) (from UniProt P32248 25-378) (receptor)

binding [8]: binds
Substance: human CCR7 wild-type fused to split-luciferase parts (hCCR7-nLuc161 and hCCR7-nLuc11) (from UniProt P32248 25-378) (receptor)
